No constants are given. Whether binding was seen depends on the method and setting. Binding seen in cells or lysates may run through a third protein. Some entries that bind do so weakly or less than the wild type.
Experiments:
FLAG-Exosc3 = FLAG-Exosc3 (UniProt Q9NQT5); experiment: co-IP
FLAG-AID = FLAG-AID (UniProt Q9GZX7); experiment: co-IP

Chains of the proteins cited; added tags and fusions are not shown.
UniProt Q9NQT5: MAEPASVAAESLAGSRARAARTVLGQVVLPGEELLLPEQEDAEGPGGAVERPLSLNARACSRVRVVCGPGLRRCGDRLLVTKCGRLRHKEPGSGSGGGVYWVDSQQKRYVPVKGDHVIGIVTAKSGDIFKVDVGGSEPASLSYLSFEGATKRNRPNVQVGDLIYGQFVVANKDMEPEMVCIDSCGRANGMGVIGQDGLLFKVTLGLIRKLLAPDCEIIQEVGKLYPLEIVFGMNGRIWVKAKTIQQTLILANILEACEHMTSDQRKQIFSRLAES
UniProt Q9GZX7: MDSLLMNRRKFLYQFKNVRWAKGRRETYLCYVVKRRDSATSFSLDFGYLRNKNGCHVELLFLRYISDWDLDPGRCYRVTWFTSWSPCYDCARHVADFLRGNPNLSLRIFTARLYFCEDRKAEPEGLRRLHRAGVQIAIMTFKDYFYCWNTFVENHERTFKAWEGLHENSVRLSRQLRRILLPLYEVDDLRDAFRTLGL
UniProt Q13868: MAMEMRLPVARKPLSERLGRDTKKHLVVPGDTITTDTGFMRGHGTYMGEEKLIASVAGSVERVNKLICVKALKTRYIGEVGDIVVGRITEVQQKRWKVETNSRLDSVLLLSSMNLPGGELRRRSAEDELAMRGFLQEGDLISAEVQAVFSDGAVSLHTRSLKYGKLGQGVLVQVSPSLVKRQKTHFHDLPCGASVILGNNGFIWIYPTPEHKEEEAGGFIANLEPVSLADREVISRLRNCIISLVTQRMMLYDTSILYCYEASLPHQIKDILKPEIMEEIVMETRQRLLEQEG
UniProt Q15024: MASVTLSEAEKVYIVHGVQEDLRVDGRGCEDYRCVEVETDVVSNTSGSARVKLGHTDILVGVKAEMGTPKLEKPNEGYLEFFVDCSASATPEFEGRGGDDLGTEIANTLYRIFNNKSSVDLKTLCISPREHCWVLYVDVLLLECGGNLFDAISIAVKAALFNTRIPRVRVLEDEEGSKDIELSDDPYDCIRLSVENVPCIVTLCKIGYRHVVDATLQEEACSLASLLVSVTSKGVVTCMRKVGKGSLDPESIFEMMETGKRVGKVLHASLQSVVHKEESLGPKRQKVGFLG

Substance	binding (FLAG-Exosc3)	binding (FLAG-AID)
AID-GFP (from UniProt Q9GZX7 1-198) (enzyme)	binds	
Exosome component 3 (Exosc3) as found in the FLAG-AID precipitate of Fig 5A (from UniProt Q9NQT5 1-275)		binds
GFP-Exosc3 (from UniProt Q9NQT5 1-275)		binds
activation-induced cytidine deaminase (AID) (from UniProt Q9GZX7 1-198) (enzyme)	binds	

Results, then the substance that gave them:

binding (FLAG-Exosc3)	binding (FLAG-AID)	Substance
binds	binds	GFP-Exosc2 (from UniProt Q13868 1-293)
binds	binds	GFP-Exosc7 (from UniProt Q15024 1-291)

— paper PMC4383551
